Assay [1] concerns the target TRiC subunit CCT2 with an internal eGFP tag (CCT2-eGFP) (yeast (BY4741 or BY4742)) (UniProt P39076). The assay is described as follows: cryo-EM structure; both-ring closed state: purified tagged TRiC incubated with 1 mM ATP, 5 mM MgCl2, 5 mM Al(NO3)3, 30 mM NaF for 1 h at 30 °C before freezing; subunit located by the extra density of its tag; both purified.
For assay [2], the target named is TRiC subunit CCT2 (yeast (endogenous in BY4741 or BY4742)) (UniProt P39076). The assay is described as follows: cryo-EM structure; open nucleotide partially preloaded (NPP) state of purified tagged TRiC; grid pretreated with polylysine; subunit located by the extra density of its eGFP tag; both purified.

Sequences of proteins named here, by UniProt entry; tags and fusion partners are left off.
UniProt P39076: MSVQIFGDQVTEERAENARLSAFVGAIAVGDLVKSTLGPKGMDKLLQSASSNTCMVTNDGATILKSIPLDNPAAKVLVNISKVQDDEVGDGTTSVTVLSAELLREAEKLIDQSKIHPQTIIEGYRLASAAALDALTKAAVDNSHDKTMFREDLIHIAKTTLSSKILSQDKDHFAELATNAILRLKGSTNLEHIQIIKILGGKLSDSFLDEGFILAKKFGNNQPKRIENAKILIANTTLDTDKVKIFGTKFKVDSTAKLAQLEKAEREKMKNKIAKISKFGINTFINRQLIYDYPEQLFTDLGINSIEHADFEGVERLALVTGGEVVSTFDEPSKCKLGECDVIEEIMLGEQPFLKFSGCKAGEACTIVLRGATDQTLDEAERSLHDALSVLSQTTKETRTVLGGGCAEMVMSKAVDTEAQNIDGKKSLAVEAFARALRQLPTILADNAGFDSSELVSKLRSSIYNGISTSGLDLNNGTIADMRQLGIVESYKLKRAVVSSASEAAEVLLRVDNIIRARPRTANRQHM
UniProt P39078: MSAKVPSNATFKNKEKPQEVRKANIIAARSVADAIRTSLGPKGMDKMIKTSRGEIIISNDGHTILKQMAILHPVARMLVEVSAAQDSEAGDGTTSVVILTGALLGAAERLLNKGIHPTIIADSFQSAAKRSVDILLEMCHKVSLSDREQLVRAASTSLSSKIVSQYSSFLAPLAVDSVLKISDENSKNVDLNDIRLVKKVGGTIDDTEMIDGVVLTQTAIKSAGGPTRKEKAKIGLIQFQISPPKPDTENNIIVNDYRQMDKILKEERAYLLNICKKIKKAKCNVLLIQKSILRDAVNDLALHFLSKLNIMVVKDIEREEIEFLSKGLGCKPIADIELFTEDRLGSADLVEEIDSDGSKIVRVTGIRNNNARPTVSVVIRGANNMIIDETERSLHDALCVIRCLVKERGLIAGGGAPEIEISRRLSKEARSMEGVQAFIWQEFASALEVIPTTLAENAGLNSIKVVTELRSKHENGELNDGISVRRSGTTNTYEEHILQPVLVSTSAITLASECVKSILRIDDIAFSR

No constants are given. Whether binding was seen depends on the method and setting. Some results given as binding are weak or reduced against the parent protein; the word gives no strength.

In the case of “TRiC subunit CCT2 with an internal eGFP tag (CCT2-eGFP) (from UniProt P39076 1-527)”, the binding entry in assay [1] is listed as “binds”.

For the substance “TRiC subunit CCT4 with an internal eGFP tag (CCT4-eGFP) (from UniProt P39078 1-528)”, the binding result in assay [2] was “binds”.

The values are drawn from paper PMC5799240.
